# Assay results taken from PubChem BioAssay AID540256 (National Center for Advancing Translational Sciences (NCATS), 2011).
# The whole screen tested about 300,000 compounds, of which about 3,700 (1.2%) were called active. The inconclusive results got no clear call from the source; some entries with a clear call stand among them for comparison. The call rests on the fitted dose curve; tested in HEK293 cells. Potencies of inconclusive entries are doubtful fits and often do not repeat.
# Assay: qHTS for Inhibitors of binding or entry into cells for Lassa Virus; further: nearly all actives have a fitted effect of over 50% in size
# Conditions: Lassa virus pseudotype entry inhibition, cell reporter; series mostly up to 37.9 µM
# Potency means the concentration at half of the fitted maximal effect.
row,SMILES,Potency
1,CCOC(=O)N1CCC(NC(=O)c2cc(C(=O)Nc3ccc(OCC)cc3)ccc2CO)CC1,inactive
2,CC1(C)Cc2c(sc3c2c(N)nc(=S)n3Cc2ccc(Br)cc2)CO1,inactive
3,COc1ccc(CC(=O)N/N=C(\C)CC(=O)Nc2ccc3c(c2)OCCO3)cc1,"inconclusive: 1.26 µM [inhibitor, single point]"
4,CN(C)S(=O)(=O)c1ccc(Cl)c(NC(=O)COC(=O)CN2C(=O)C3CCCCC3C2=O)c1 (stereo not given),"inconclusive: 31.6 µM [inhibitor, partial curve, poor fit]"
5,C=CCc1cc(C=O)cc(OC)c1OCc1ccc(C(=O)O)cc1,"inconclusive: 15.8 µM [activator, single point]"
6,O=S(=O)(NCC(c1ccco1)N1CCN(c2ccccc2F)CC1)c1ccccc1 (stereo not given),"inconclusive: 1.84 µM [inhibitor, partial curve, poor fit]"
7,COc1ccc(C(=O)N[C@H](C(=O)Nc2nc3ccccc3[nH]2)C(C)C)cc1,"inconclusive: 8.91 µM [inhibitor, partial curve]"
8,Cc1nc(NC(CC(C)C)C(=O)O)c2nc(C)oc2n1 (stereo not given),"inconclusive: 6.51 µM [activator, single point]"
9,CN(N=O)c1cc(O)ccc1O,active: 16.4 µM
10,CC(=O)c1cccc(NC(=O)c2ccc3c(c2)OCO3)c1,inactive
11,CN(CC(=O)NNC(=O)Cc1ccccc1F)S(=O)(=O)c1ccc(Cl)cc1,inactive
12,Cc1ccc(Cn2c(C(=O)O)c(CNCc3ccc(OC(C)C)cc3)c3ccc(C)cc32)cc1,"inconclusive: 10 µM [inhibitor, single point]"
13,CC1CCN(c2ccc([N+](=O)[O-])cn2)CC1,"inconclusive: 31.6 µM [activator, single point]"
14,COc1ccc(OC)c(NC(=O)CSc2ccc(-c3cccs3)nn2)c1,inactive
15,CCOC(=O)CN1C(=O)C(Sc2n[nH]c(-c3ccccc3)n2)CCc2ccccc21 (stereo not given),"inconclusive: 16.4 µM [inhibitor, partial curve, poor fit]"
16,CC12CCC(C(=O)NCc3ccco3)(OC1=O)C2(C)C (stereo not given),"inconclusive: 29.1 µM [activator, single point]"
17,Cc1cc(C)c2c(n1)nn1c(NCCN3CCOCC3)cc(C)nc21,"inconclusive: 7.3 µM [inhibitor, single point]"
18,CCOC(=O)c1c(C)oc2nc(C)nc(Nc3ccc(C)c(Cl)c3)c12,"inconclusive: 1.58 µM [activator, full curve, poor fit]"
19,COc1cc(OC)c(Nc2nc3ccccc3c3nncn23)cc1Cl,"inconclusive: 6.31 µM [activator, single point]"
20,COc1ccc(N=Cc2c(O)n(-c3ccc(C)cc3)c(=O)[nH]c2=O)cc1,"inconclusive: 7.94 µM [inhibitor, partial curve, poor fit]"
21,Clc1ccccc1NC1=NCCCS1,inactive
22,CC1=C(Cl)C2=NS(=O)(=O)CCN2C=C1Cl,inactive
23,CCOc1ccccc1NC(=O)NCc1ccc2c(c1)CCN2C(=O)c1ccccc1,"inconclusive: 35.5 µM [inhibitor, partial curve, poor fit]"

row,SMILES,Potency
1,Cc1ccc(-c2nc3nc(C)cc(N4CCN(c5cccc(C)c5C)CC4)n3n2)cc1,inactive
2,CN(C)c1ccc(CN(Cc2ccco2)C(=O)c2ccc(C(C)(C)C)cc2)cc1,"inconclusive: 6.31 µM [inhibitor, full curve]"
3,O=C(Nc1ccc(N2CCOCC2)c(Cl)c1)C1CCCCC1,"inconclusive: 8.2 µM [activator, partial curve]"
4,COCCNC(=O)c1cc(-c2ccc3c(c2)OCO3)on1,"inconclusive: 11.2 µM [inhibitor, partial curve, poor fit]"
5,COc1ccc(CCNc2oc(/C=C/c3cc(OC)c(OC)c(OC)c3)nc2C#N)cc1OC,inactive
6,COc1ccc(S(=O)(=O)NCC(c2cccnc2)N2CCN(c3ccccc3)CC2)cc1C (stereo not given),inactive
7,CCOC(=O)c1ccc(N2C(=O)c3n[nH]c(-c4cccs4)c3C2c2ccc(OCC)cc2)cc1 (stereo not given),"inconclusive: 5.62 µM [inhibitor, partial curve]"
8,N#CCCn1cc(C(=O)Nc2ccc(F)cc2)c(-c2ccc([N+](=O)[O-])cc2)n1,"inconclusive: 3.66 µM [inhibitor, partial curve, poor fit]"
9,S=C(Nc1cccc2ccccc12)NN1CCCCCC1,inactive
10,Cc1cc(C(=O)Nc2ccc(Nc3ccccc3)cc2)ccc1[N+](=O)[O-],inactive
11,CCN1C(=O)c2ccccc2S(=O)c2ccc(C(=O)NCc3ccc(OC)cc3)cc21 (stereo not given),"inconclusive: 5.62 µM [activator, single point]"
12,O=C(CSc1nc2cc(C(=O)NC3CCCC3)ccc2c(=O)n1CC1CCCO1)c1cccc(Cl)c1 (stereo not given),inactive
13,CCOc1ccc(-c2cc(C(=O)N3CCC4(CC3)OCCO4)c3ccccc3n2)cc1,"inconclusive: 3.55 µM [inhibitor, single point]"
14,CCOc1ccc(NC(=O)CC2C(=O)N(c3ccc(F)cc3)C(=O)N2Cc2ccc(OC)c(OC)c2)cc1 (stereo not given),inactive
15,N#Cc1ccc(C(=O)Nc2ccc([N+](=O)[O-])cc2)c(F)c1,inactive
16,COc1ccc(NS(=O)(=O)c2cc(NC(=O)c3ccc(Cl)cc3)ccc2N2CCOCC2)cc1,"inconclusive: 0.562 µM [inhibitor, full curve, poor fit]"
17,CCOC(=O)N1CCN(C(=O)C(=O)c2cn(CC(=O)N3CCCCCC3)c3ccccc23)CC1,"inconclusive: 0.708 µM [inhibitor, single point]"
18,CCn1c(SCC(=O)NC2CCCCC2)nnc1-c1cccnc1,"inconclusive: 1.26 µM [inhibitor, full curve, poor fit]"
19,CC(=O)NC1(C(F)(F)F)C(=O)Nc2c1c(=O)n(C)c(=O)n2C (stereo not given),inactive
20,COC(=O)CSC1=C(C#N)C(c2ccsc2)CC(=O)N1 (stereo not given),"inconclusive: 2.24 µM [inhibitor, full curve]"
21,Cc1ccc(NC(=S)N2CCN(S(=O)(=O)c3ccccc3)CC2)cc1,inactive
22,COc1ccc(NC(=O)CSc2nc3ccccc3c(=O)n2CCC(=O)N2CCCCC2)cc1,"inconclusive: 29.1 µM [inhibitor, single point]"

# 4 successive entries already listed, quoted:
row,SMILES,Potency
17,Cc1cc(C)c2c(n1)nn1c(NCCN3CCOCC3)cc(C)nc21,"inconclusive: 7.3 µM [inhibitor, single point]"
18,CCOC(=O)c1c(C)oc2nc(C)nc(Nc3ccc(C)c(Cl)c3)c12,"inconclusive: 1.58 µM [activator, full curve, poor fit]"
19,COc1cc(OC)c(Nc2nc3ccccc3c3nncn23)cc1Cl,"inconclusive: 6.31 µM [activator, single point]"
20,COc1ccc(N=Cc2c(O)n(-c3ccc(C)cc3)c(=O)[nH]c2=O)cc1,"inconclusive: 7.94 µM [inhibitor, partial curve, poor fit]"
